Data reported in PMC10687533.
No constants are given. Whether binding was seen depends on the method and setting. In cells and extracts the contact can be indirect. Some results given as binding are weak or reduced against the parent protein; the word gives no strength. Tags and fused reporters may be left off the sequences shown.

Sequences of proteins named here, by UniProt entry; tags and fusion partners are left off.
UniProt Q01827: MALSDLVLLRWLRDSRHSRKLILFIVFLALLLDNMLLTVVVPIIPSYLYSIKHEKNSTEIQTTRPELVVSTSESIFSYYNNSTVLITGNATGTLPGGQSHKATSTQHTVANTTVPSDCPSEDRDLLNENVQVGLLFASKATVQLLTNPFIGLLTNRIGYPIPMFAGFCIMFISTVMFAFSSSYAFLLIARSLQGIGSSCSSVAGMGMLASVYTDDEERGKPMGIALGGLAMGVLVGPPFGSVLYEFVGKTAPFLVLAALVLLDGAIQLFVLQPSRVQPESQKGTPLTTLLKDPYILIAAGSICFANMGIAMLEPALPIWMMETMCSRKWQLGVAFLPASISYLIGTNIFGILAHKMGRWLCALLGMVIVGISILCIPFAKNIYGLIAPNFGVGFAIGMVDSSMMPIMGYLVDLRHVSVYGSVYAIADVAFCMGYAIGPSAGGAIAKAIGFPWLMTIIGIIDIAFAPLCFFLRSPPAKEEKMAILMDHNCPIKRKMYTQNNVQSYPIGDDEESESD

Target: vesicular monoamine transporter 2 (VMAT2) (rat) (UniProt Q01827)
Experiment: co-IP; both proteins overexpressed in transfected cells (HeLa for Fig. 1A); lysis buffer 150 mmol/L NaCl, 50 mmol/L Tris-HCl pH 8.0, 5 mmol/L EDTA, 0.4% NP-40; antibodies 2 h at 4 C, protein A/G agarose 2 h; Western blot

- binding: binds
B1: Flag-tagged sorting nexin 5 (SNX5) (protein, UniProt B1H267 1-404)
chain: MAAVPELLEQQEEDRSKLRSVSVDLNVDPSLQIDIPDALSERDKVKFTVHTKTTLPTFQSPEFSVTRQHEDFVWLHDTLTETTDYAGLIIPPAPTKPDFDGPREKMQKLGEGEGSMTKEEFAKMKQELEAEYLAVFKKTVSSHEVFLQRLSSHPVLSKDRNFHVFLEYDQDLSVRRKNTKEMFGGFFKSVVKSADEVLFSGVKEVDDFFEQEKNFLINYYNRIKDSCAKADKMTRSHKNVADDYIHTAACLHSLALEEPTVIKKYLLKVAELFEKLRKVEGRVSSDEDLKLTELLRYYMLNIEAAKDLLYRRTKALIDYENSNKALDKARLKSKDVKLAETHQQECCQKFEQLSESAKEELINFKRKRVAAFRKNLIEMSELEIKHARNNVSLLQSCIDLFKNN
